According to paper PMC8693076:
These are yes or no findings as the source states them, for the method shown. Binding seen in cells or lysates may run through a third protein. Some results given as binding are weak or reduced against the parent protein; the word gives no strength. For some assays here: Tags and fused reporters may be left off the sequences shown.

Protein sequences, listed by entry. Tags and fused reporters are not part of them.
UniProt Q9GZV5: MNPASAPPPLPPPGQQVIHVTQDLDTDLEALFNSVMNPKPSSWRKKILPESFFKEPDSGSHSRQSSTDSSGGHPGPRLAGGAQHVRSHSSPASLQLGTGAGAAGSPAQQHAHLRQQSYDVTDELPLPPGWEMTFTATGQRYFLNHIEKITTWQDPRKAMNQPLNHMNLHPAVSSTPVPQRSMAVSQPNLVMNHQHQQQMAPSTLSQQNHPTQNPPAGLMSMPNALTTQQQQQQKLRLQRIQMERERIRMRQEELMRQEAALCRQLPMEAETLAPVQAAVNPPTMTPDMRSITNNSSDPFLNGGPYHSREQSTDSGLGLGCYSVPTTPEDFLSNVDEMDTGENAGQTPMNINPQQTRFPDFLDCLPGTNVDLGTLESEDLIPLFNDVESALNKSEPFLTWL
UniProt P46937: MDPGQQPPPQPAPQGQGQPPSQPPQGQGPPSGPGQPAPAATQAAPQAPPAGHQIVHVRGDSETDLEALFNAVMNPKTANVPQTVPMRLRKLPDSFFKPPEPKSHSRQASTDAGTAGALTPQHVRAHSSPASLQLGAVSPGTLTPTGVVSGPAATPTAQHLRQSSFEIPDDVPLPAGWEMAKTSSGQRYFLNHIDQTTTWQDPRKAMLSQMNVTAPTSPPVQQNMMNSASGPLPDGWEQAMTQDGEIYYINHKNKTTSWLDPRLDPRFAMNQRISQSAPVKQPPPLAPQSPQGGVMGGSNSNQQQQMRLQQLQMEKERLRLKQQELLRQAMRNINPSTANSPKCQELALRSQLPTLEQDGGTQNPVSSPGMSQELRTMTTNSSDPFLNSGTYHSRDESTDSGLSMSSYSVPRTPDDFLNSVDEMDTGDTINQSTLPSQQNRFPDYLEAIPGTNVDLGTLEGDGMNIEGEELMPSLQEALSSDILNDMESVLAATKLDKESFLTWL

Legend:
[1] = target: T1, Flag‐HA‐tagged NONO (human) (UniProt Q15233); experiment: co-IP; HEK293T cells transfected with tagged proteins; lysed in RIPA buffer (with or without SDS), benzonase; anti-FLAG M2 affinity gel 4 °C 2 h; eluted with 3xFLAG peptide; western blot
T1 sequence: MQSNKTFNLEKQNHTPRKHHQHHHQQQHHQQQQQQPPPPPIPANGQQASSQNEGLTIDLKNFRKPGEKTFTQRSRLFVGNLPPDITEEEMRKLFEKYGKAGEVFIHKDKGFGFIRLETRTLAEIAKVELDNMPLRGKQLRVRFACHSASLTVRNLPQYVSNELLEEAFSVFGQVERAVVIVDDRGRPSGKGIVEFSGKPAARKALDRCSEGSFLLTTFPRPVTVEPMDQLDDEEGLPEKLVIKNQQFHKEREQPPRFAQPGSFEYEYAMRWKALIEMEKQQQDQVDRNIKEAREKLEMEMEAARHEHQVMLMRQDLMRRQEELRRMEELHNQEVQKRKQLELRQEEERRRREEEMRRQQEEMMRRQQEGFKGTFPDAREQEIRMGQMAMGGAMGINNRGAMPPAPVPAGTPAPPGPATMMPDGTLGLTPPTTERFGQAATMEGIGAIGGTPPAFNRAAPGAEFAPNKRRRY

Flag‐HA‐tagged TAZ = Flag‐HA‐tagged TAZ (UniProt Q9GZV5); experiment: as above
[2] = target: Flag‐tagged TAZ (LN229, stably transduced) (UniProt Q9GZV5); experiment: co-IP; LN229 cells stably transduced with Flag-tagged TAZ, seeded on Petri dishes for indicated hours; anti-FLAG M2 affinity gel; western blot; NONO-depleted cells compared
[3] = target: TAZ (endogenous, LN229) (human (endogenous in LN229)) (UniProt Q9GZV5); experiment: proximity ligation; Duolink II; LN229 cells on coverslips for indicated hours, endogenous proteins, primary antibodies against the two proteins; shRNA, CRISPR knock-out controls
[4] = target: TAZ (endogenous, LN229) (human (endogenous in LN229)) (UniProt Q9GZV5); experiment: co-IP; endogenous proteins; LN229 cells seeded 2 h, RIPA buffer, benzonase; TAZ antibody (CST #4883), rabbit IgG control or TEAD antibody, protein A/G agarose; western blot; control and NONO knock-out cells compared
[5] = target: recombinant TAZ, precipitated by a Flag antibody (HEK293T, Figure 1B) (UniProt Q9GZV5); experiment: co-IP; Figure S1B; told only in the results after the immunoprecipitations of Figure 1B; cells, bait and tags not shown
[6] = target: recombinant TAZ, precipitated by a Flag antibody (HEK293T, Figure 1B) (UniProt Q9GZV5); experiment: co-IP; HEK293T cells transfected with tagged proteins; lysed in RIPA buffer (with or without SDS), benzonase; anti-FLAG M2 affinity gel 4 °C 2 h; eluted with 3xFLAG peptide; western blot

With “yes‐associated protein (YAP) (from UniProt P46937 1-504)” the binding [1] was “binds”.

For “Myc‐tagged TAZ (from UniProt Q9GZV5 1-400)”, the binding [1] was “binds”.

B1: Myc‐tagged NONO (protein, UniProt Q15233 1-471)
chain: MQSNKTFNLEKQNHTPRKHHQHHHQQQHHQQQQQQPPPPPIPANGQQASSQNEGLTIDLKNFRKPGEKTFTQRSRLFVGNLPPDITEEEMRKLFEKYGKAGEVFIHKDKGFGFIRLETRTLAEIAKVELDNMPLRGKQLRVRFACHSASLTVRNLPQYVSNELLEEAFSVFGQVERAVVIVDDRGRPSGKGIVEFSGKPAARKALDRCSEGSFLLTTFPRPVTVEPMDQLDDEEGLPEKLVIKNQQFHKEREQPPRFAQPGSFEYEYAMRWKALIEMEKQQQDQVDRNIKEAREKLEMEMEAARHEHQVMLMRQDLMRRQEELRRMEELHNQEVQKRKQLELRQEEERRRREEEMRRQQEEMMRRQQEGFKGTFPDAREQEIRMGQMAMGGAMGINNRGAMPPAPVPAGTPAPPGPATMMPDGTLGLTPPTTERFGQAATMEGIGAIGGTPPAFNRAAPGAEFAPNKRRRY
In the case of B1, the binding (Flag‐HA‐tagged TAZ) is reported as “binds”.

B2: Non‐POU domain‐containing octamer‐binding protein (NONO), endogenous, LN229 (protein, UniProt Q15233 1-471)
chain: MQSNKTFNLEKQNHTPRKHHQHHHQQQHHQQQQQQPPPPPIPANGQQASSQNEGLTIDLKNFRKPGEKTFTQRSRLFVGNLPPDITEEEMRKLFEKYGKAGEVFIHKDKGFGFIRLETRTLAEIAKVELDNMPLRGKQLRVRFACHSASLTVRNLPQYVSNELLEEAFSVFGQVERAVVIVDDRGRPSGKGIVEFSGKPAARKALDRCSEGSFLLTTFPRPVTVEPMDQLDDEEGLPEKLVIKNQQFHKEREQPPRFAQPGSFEYEYAMRWKALIEMEKQQQDQVDRNIKEAREKLEMEMEAARHEHQVMLMRQDLMRRQEELRRMEELHNQEVQKRKQLELRQEEERRRREEEMRRQQEEMMRRQQEGFKGTFPDAREQEIRMGQMAMGGAMGINNRGAMPPAPVPAGTPAPPGPATMMPDGTLGLTPPTTERFGQAATMEGIGAIGGTPPAFNRAAPGAEFAPNKRRRY
For B2, the binding [2] was “binds”, the binding [3] was “binds” and the binding [4] was “binds”.

B3: NONO (HEK293T, Figure 1B) (protein, UniProt Q15233 1-471)
chain: MQSNKTFNLEKQNHTPRKHHQHHHQQQHHQQQQQQPPPPPIPANGQQASSQNEGLTIDLKNFRKPGEKTFTQRSRLFVGNLPPDITEEEMRKLFEKYGKAGEVFIHKDKGFGFIRLETRTLAEIAKVELDNMPLRGKQLRVRFACHSASLTVRNLPQYVSNELLEEAFSVFGQVERAVVIVDDRGRPSGKGIVEFSGKPAARKALDRCSEGSFLLTTFPRPVTVEPMDQLDDEEGLPEKLVIKNQQFHKEREQPPRFAQPGSFEYEYAMRWKALIEMEKQQQDQVDRNIKEAREKLEMEMEAARHEHQVMLMRQDLMRRQEELRRMEELHNQEVQKRKQLELRQEEERRRREEEMRRQQEEMMRRQQEGFKGTFPDAREQEIRMGQMAMGGAMGINNRGAMPPAPVPAGTPAPPGPATMMPDGTLGLTPPTTERFGQAATMEGIGAIGGTPPAFNRAAPGAEFAPNKRRRY
B3 was tested, and the binding [5] was “binds” and the binding [6] was “binds”.
